The list shows only some results of the screen, not a fair sample: it gathers tests that were run many times, whatever their T/C, doses with no T/C, and many T/C values between a quarter and a half above the control. Further doses and runs are listed elsewhere. T/C: endpoint of the treated group in % of that of the vehicle group. Some doses have a count of surviving animals in place of a T/C: the source files T/C as zero there, which appears to mark a toxic dose or a test without result, not a measured value. Some doses without a T/C left all or most animals alive at the check, yet need not have been tolerated: survival well below the control is almost never listed, so the zero probably covers shortened survival too. Counts of survivors are from the toxicity check (mostly the fifth day) where no day follows; animals may have died later. Schedule codes are those of the source, taken here to give the interval after Q, in days (D) or hours (H), and the number of doses after X. Some structures stand for samples that the source files as different forms (salt, stereo form or complex); doses refer to the form tested. Counts like (3×) say how often a value occurs here. Where survival is the endpoint, the PubChem record calls one and a half times the control and up active, and a quarter to a half above the control has no call in these data; cut-offs in other NCI protocols can differ.
System: BDF1 mice, B16 melanoma ip, median survival T/C
Experiment: NCI In Vivo Anticancer Drug Screen. Data for tumor model B16 Melanoma (intraperitoneal) in B6D2F1 (BDF1) mice
Conditions: T/C endpoint: median survival time, higher T/C = longer survival
Procedure, shortened: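 Mice with transplantable tumors; drug vs vehicle groups; endpoint survival or tumor size; value = T/C.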

[1] = dose: 100.0 mg/kg/injection, schedule: Q01DX009 (ip), vehicle: Klucel (hydroxypropylcellulose) (HPC)
[2] = dose: 200.0 mg/kg/injection, schedule: Q01DX009 (ip), vehicle: Klucel (hydroxypropylcellulose) (HPC)
[3] = dose: 400.0 mg/kg/injection, schedule: Q01DX009 (ip), vehicle: Klucel (hydroxypropylcellulose) (HPC)

SMILES: NC(N)=NCCCOc1ccccc1
- survivor count [1]: 7 of 10
- survivor count [2]: 0 of 10
- survivor count [3]: 0 of 10

SMILES: CCCCCCCCNc1cc2c3c(c1)CCCN3CCC2
- survivor count (dose: 3.0 mg/kg/injection, schedule: Q01DX009 (ip), vehicle: Klucel (hydroxypropylcellulose) (HPC)): 10 of 10

SMILES: Nc1ccc(C(=O)O)c(O)c1
- survivor count (dose: 4.7 mg/kg/injection, schedule: Q01DX009 (ip), vehicle: saline with Tween-80): 10 of 10

SMILES: CCOC(=N)c1cn(C2OC(CO)C(O)C2O)c2ncnc(N)c12 (stereo not given)
- survivor count (dose: 1.0 mg/kg/injection, schedule: Q01DX009 (ip), vehicle: saline): 10 of 10
- survivor count (dose: 2.0 mg/kg/injection, schedule: Q01DX009 (ip), vehicle: saline): 10 of 10
- survivor count (dose: 4.0 mg/kg/injection, schedule: Q01DX009 (ip), vehicle: saline): 10 of 10

SMILES: CCCC(C(CC)CN(C)C)N(C)C (stereo not given)
- survivor count (dose: 100.0 mg/kg/injection, schedule: Q01DX009 (ip), vehicle: saline with Tween-80): 6 of 10

SMILES: CCCCCCCCCCCCCC[n+]1ccccc1
- survivor count (dose: 0.13 mg/kg/injection, schedule: Q01DX009 (ip), vehicle: saline with Tween-80): 6 of 6
- survivor count (dose: 0.25 mg/kg/injection, schedule: Q01DX009 (ip), vehicle: saline with Tween-80): 6 of 6
- survivor count (dose: 0.5 mg/kg/injection, schedule: Q01DX009 (ip), vehicle: saline with Tween-80): 6 of 6 (2×)

SMILES: COC(=O)C1(C(=O)OC)CC1CCl (stereo not given)
- survivor count (dose: 400.0 mg/kg/injection, schedule: Q04DX003 (ip), vehicle: saline with Tween-80): 10 of 10

SMILES: CCCCNC(C)(C)C(SSSC(c1ccco1)C(C)(C)NCCCC)c1ccco1 (stereo not given)
- survivor count (dose: 50.0 mg/kg/injection, schedule: Q01DX009 (ip), vehicle: Klucel (hydroxypropylcellulose) (HPC)): 9 of 10
- survivor count [1]: 10 of 10
- survivor count [2]: 3 of 10

SMILES: O=C(NCCO)Nc1ccc(Cl)c(Cl)c1
- survivor count (dose: 135.0 mg/kg/injection, schedule: Q01DX009 (ip), vehicle: other): 10 of 10
- T/C (dose: 200.0 mg/kg/injection, schedule: Q01DX009 (ip), vehicle: other): 142 % of control

SMILES: CS(=O)(=O)Nc1ccccc1N
- survivor count [1]: 10 of 10
- survivor count [2]: 7 of 10
- survivor count [3]: 0 of 10

SMILES: COc1ccc(C(C(N)=O)N2CCOCC2)cc1 (stereo not given)
- survivor count [1]: 10 of 10
- survivor count [3]: 10 of 10

SMILES: COc1cc2nc3cc([N+](=O)[O-])ccc3c(Cl)c2cc1OC
- survivor count [2]: 9 of 10

SMILES: CCOC(Cl)CCl (stereo not given)
- survivor count (dose: 50.0 mg/kg/injection, schedule: Q01DX009 (ip), vehicle: saline with Tween-80): 9 of 10

— PubChem BioAssay AID192 (DTP/NCI, 2004)
